Source: PubChem BioAssay AID1224828 (NIAID, 2016)
Here is one part, drawn at random, of about 17,000 deposited reagents. Of all reagents, 762 (4.5%) were called active. 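Active calls include both raised and lowered p65 entry, mostly lowered; wells with fewer than 50 cells lack a z-score.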 Raw values vary from plate to plate and are shown uncorrected. Reagent sequences are not shown.

Test: 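Knock-downs that increase or decrease LPS-induced p65 nuclear translocation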 (primary screen)
Cells: mouse RAW264.7 G9 macrophage reporter cells (GFP-p65, Tnf promoter-mCherry)
Knock-down reagent: siRNA pool against mouse genes, 100 nM
Timing: 2 days siRNA transfection, then 40 min LPS before fixation
Treatment: LPS (Salmonella minnesota R595) at 10 ng/ml
Detection: 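Microscopy ratio of nuclear to perinuclear-ring GFP-p65 signal, scaled to the plate median; gene score is the average of two replicate robust z-scores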
Scale: p65 translocation robust z-score: higher = more nuclear NF-kappaB p65 after LPS than the plate median; nuclear/cytoplasmic p65 ratio: higher = more nuclear NF-kappaB p65
Active means: 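Called active when z exceeds 3.3 or falls under -1.56 (median of Tlr4 controls), giving activity score of at least 50; no calls for control wells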
Calls: active = hit (p65 shift raised or lowered); inactive = no clear change

| target | p65 translocation robust z-score | nuclear/cytoplasmic p65 ratio, rep 1 | nuclear/cytoplasmic p65 ratio, rep 2 | low cell count flag | activity call |
| --- | --- | --- | --- | --- | --- |
| Chmp1b2 | -0.81 | 1.26 | 1.35 | enough cells to score | inactive |
| Kcna10 | 1.22 | 1.61 | 1.52 | enough cells to score | inactive |
| Rfc1 | -0.58 | 1.48 | 1.39 | enough cells to score | inactive |
| Smad6 | – | 1.2 | 1.32 | fewer than 50 cells per well; well left out of scoring | inactive |
| Heatr3 | – | 1.76 | 1.77 | fewer than 50 cells per well; well left out of scoring | inactive |
| Ptgis | -0.93 | 1.41 | 1.25 | enough cells to score | inactive |
| Nckipsd | – | 1.33 | 1.28 | fewer than 50 cells per well; well left out of scoring | inactive |
| Or4k42 | 0.6 | 1.72 | 1.5 | enough cells to score | inactive |
| Prmt2 | -0.98 | 1.34 | 1.22 | enough cells to score | inactive |
| Etv2 | 2.18 | 1.89 | 1.78 | enough cells to score | inactive |
| Cc2d2a | -0.08 | 1.3 | 1.5 | enough cells to score | inactive |
| 2310002L09Rik | – | 1.23 | 1.16 | fewer than 50 cells per well; well left out of scoring | inactive |
| Rsad2 | -0.93 | 1.44 | 1.51 | enough cells to score | inactive |
| P2rx4 | 1.2 | 1.55 | 1.62 | enough cells to score | inactive |
| Sema3d | -0.07 | 1.44 | 1.21 | enough cells to score | inactive |
| Zfp869 | 0.22 | 1.63 | 1.66 | enough cells to score | inactive |
| Prps2 | -0.87 | 1.54 | 1.28 | enough cells to score | inactive |
| Zfy1 | – | 1.36 | 1.06 | fewer than 50 cells per well; well left out of scoring | inactive |
| Sez6l2 | 1.05 | 1.66 | 1.53 | enough cells to score | inactive |
| Hmga1 | -1.67 | 1.19 | 1.19 | enough cells to score | active |
| 2310011J03Rik | -0.76 | 1.22 | 1.26 | enough cells to score | inactive |
| Btnl9 | 1.24 | 1.69 | 1.79 | enough cells to score | inactive |
| Lpin2 | – | 1.74 | 1.45 | fewer than 50 cells per well; well left out of scoring | inactive |
| Or5an9 | – | 1.27 | 1.06 | fewer than 50 cells per well; well left out of scoring | inactive |
| Ap4s1 | -0.65 | 1.44 | 1.48 | enough cells to score | inactive |
| Elovl3 | – | 1.47 | 1.35 | fewer than 50 cells per well; well left out of scoring | inactive |
| Pcdh15 | -0.13 | 1.52 | 1.32 | enough cells to score | inactive |
| Pmepa1 | – | 1.55 | 1.22 | fewer than 50 cells per well; well left out of scoring | inactive |
| C1qtnf4 | -0.43 | 1.37 | 1.47 | enough cells to score | inactive |
| Plppr4 | – | 1.66 | 1.74 | fewer than 50 cells per well; well left out of scoring | inactive |
| Wdr62 | – | 1.28 | 1.31 | fewer than 50 cells per well; well left out of scoring | inactive |
| Trip4 | -0.6 | 1.55 | 1.3 | enough cells to score | inactive |
| Ppp1r2-ps9 | 0.4 | 1.66 | 1.68 | enough cells to score | inactive |
| Cacna1f | -0.4 | 1.59 | 1.52 | enough cells to score | inactive |
| Slc8a3 | 2.83 | 1.86 | 1.5 | enough cells to score | inactive |
| Ptms | -0.97 | 1.48 | 1.46 | enough cells to score | inactive |
| Tssk6 | 0.27 | 1.68 | 1.46 | enough cells to score | inactive |
| Chmp4b | – | 2.08 | 1.09 | fewer than 50 cells per well; well left out of scoring | inactive |
| Fam72a | -1.54 | 1.19 | 1.26 | enough cells to score | inactive |
| Aldh1a2 | -0.3 | 1.53 | 1.62 | enough cells to score | inactive |
| Gng4 | 0.06 | 1.49 | 1.61 | enough cells to score | inactive |
| Lce1b | -0.18 | 1.4 | 1.21 | enough cells to score | inactive |
| Ankrd48 | – | 1.55 | 1.56 | fewer than 50 cells per well; well left out of scoring | inactive |
| Tmem150b | 0.47 | 1.68 | 1.88 | enough cells to score | inactive |
| Rab3b | -0.47 | 1.58 | 1.33 | enough cells to score | inactive |
| Slc35f2 | -1 | 1.3 | 1.14 | enough cells to score | inactive |
| Xpo1 | 1.2 | 1.55 | 1.79 | enough cells to score | inactive |
| Rpl26 | -1.58 | 1.16 | 1.08 | enough cells to score | active |
| Parm1 | -0.98 | 1.34 | 1.36 | enough cells to score | inactive |
| Plxnc1 | -1.29 | 1.31 | 1.25 | enough cells to score | inactive |
| Inpp5a | -0.62 | 1.34 | 1.35 | enough cells to score | inactive |
| Olfml2b | -0.04 | 1.36 | 1.25 | enough cells to score | inactive |
| 3830403N18Rik | – | 1.15 | 1.18 | fewer than 50 cells per well; well left out of scoring | inactive |
| Ralgps2 | 1.19 | 1.77 | 1.81 | enough cells to score | inactive |
| Capstert | -0.23 | 1.35 | 1.41 | enough cells to score | inactive |
| Plscr3 | -0.71 | 1.42 | 1.3 | enough cells to score | inactive |
| Or5ak22 | 0.97 | 1.62 | 1.31 | enough cells to score | inactive |
| Zcchc18 | -1.18 | 1.28 | 1.37 | enough cells to score | inactive |
| Atxn7l2 | – | 1.28 | 1.17 | fewer than 50 cells per well; well left out of scoring | inactive |

Active calls, among the entries above:
| target | p65 translocation robust z-score | nuclear/cytoplasmic p65 ratio, rep 1 | nuclear/cytoplasmic p65 ratio, rep 2 | low cell count flag | activity call |
| --- | --- | --- | --- | --- | --- |
| Hmga1 | -1.67 | 1.19 | 1.19 | enough cells to score | active |
| Rpl26 | -1.58 | 1.16 | 1.08 | enough cells to score | active |
